This assay deals with recombinant Her2/neu extracellular domain (ECD) expressed in yeast Pichia pastoris (human) (UniProt P04626). In words: ELISA on coated Her2-ECD (10 µg/ml). On the technique in general: An ELISA detects its analyte on a solid surface through an enzyme-linked reagent.

These are yes or no findings as the source states them, for the method shown. Some results given as binding are weak or reduced against the parent protein; the word gives no strength.

B1: Fab63 (Fab, V domains shown)
VH: EVQLLEWGPGLVKPSGTLSLTCAVSGGSIRDSNWWGWVRQPPGKGLEWIGEIYHSGTTNYNPSLKSRVTISVDKSKNQFSLNLSSVTAADTAVYYCAREDCSYGSCYFDYWGQGTLVTVSS
VL: ELTLTQSPSSLSASLGDRVTIRCRASQSISAALNWYQQKPGKAPKLLIHDVSTLQSGVPARFSGGGSETDFTLTISSLQPEDFATYYCQQSYRVPLTFGGGTRLEIK
notes: Fully human soluble Fab made in E. coli from pComb3H; Heavy chain is an Fd of the gamma1 isotype (VH-CH1), light chain is kappa (VL of the K subgroup, with Ckappa); also called human Fab 63; clone 63
On to B1, for which the binding entry was “binds”.
